Source: US8617516B2, “Universal anchor peptide for nanoparticles” (Washington University, priority 2008, dated 2013)
Some entries share one result that the patent states for a list of compounds.

Assay: Dissociation of loaded peptide from PFOB nanoparticles (tryptophan fluorescence of supernatant)
Assay type: physicochemical
Conditions: stored at 4° C., up to 70 hours after loading
Method: The dissociation of the peptide from linker peptide 1-loaded PFOB nanoparticles is depicted in FIG. 4. After being loaded with the linker peptide 1, the loaded PFOB nanoparticles were stored at 4° C. for 30 minutes, 1 hour, 2 hours, 4 hours, 22 hours, 46 hours, and 70 hours. The loaded nanoparticles were centrifuged at 100 g for 10 minutes, and the dissociated linker peptide 1 was measured by using tryptophan fluorescence after excitation at 280 nm in a fluorescent spectrofluorometer (Varian Inc, Palo Alto, Calif.).
FIG. 9 presents the dissociation of TCP1 or TCP2 from loaded PFOB nanoparticles as a function of time after loading. After loaded with TCP1 or TCP2, the PFOB nanoparticles were stored at 4° C. for 30 minutes, 1 hour, 2 hours, 4 hours, 22 hours, 46 hours, and 70 hours. The stored nanoparticles were then centrifuged at 100 g for 10 minutes and dissociated TCP1 or TCP2 was measured using tryptophan fluorescence after excitation at 280 nm in a fluorescent spectrofluorometer (Varian Inc, Palo Alto, Calif.).

Row | Substance | loaded peptide dissociated from the PFOB nanoparticles
1 | VHPKQHRggVLTTGLPALISWIKR [TCP2] | < 15%
2 | VLTTGLPALISWIKRggVHPKQHR [TCP1] | < 15%
